From the supplement of paper PMC12823440, “Inhibitors supercharge kinase turnover through native proteolytic circuits” (Nature, 2025)
Where a name gives a salt, the structure may show the parent alone. This is one part of the list. Hit calls seldom repeat between salt and free forms of one compound.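 Kinases were expressed as nanoluciferase fusions in K562 cells and luminescence was read every 4 h between 2 and 18 h as percent of control, DMSO set to 100% and a positive control to 0%. A time point counts as decreased when the signal drops significantly (2 sigma). The hit call is the authors' own, does not follow from the count of time points alone, and its rule is not shown.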

The chains behind the UniProt entries cited, without tags or fusion partners. Where a name states a change or a piece, a line headed by the entry shows the natural chain unless it says otherwise.
UniProt Q9UM73: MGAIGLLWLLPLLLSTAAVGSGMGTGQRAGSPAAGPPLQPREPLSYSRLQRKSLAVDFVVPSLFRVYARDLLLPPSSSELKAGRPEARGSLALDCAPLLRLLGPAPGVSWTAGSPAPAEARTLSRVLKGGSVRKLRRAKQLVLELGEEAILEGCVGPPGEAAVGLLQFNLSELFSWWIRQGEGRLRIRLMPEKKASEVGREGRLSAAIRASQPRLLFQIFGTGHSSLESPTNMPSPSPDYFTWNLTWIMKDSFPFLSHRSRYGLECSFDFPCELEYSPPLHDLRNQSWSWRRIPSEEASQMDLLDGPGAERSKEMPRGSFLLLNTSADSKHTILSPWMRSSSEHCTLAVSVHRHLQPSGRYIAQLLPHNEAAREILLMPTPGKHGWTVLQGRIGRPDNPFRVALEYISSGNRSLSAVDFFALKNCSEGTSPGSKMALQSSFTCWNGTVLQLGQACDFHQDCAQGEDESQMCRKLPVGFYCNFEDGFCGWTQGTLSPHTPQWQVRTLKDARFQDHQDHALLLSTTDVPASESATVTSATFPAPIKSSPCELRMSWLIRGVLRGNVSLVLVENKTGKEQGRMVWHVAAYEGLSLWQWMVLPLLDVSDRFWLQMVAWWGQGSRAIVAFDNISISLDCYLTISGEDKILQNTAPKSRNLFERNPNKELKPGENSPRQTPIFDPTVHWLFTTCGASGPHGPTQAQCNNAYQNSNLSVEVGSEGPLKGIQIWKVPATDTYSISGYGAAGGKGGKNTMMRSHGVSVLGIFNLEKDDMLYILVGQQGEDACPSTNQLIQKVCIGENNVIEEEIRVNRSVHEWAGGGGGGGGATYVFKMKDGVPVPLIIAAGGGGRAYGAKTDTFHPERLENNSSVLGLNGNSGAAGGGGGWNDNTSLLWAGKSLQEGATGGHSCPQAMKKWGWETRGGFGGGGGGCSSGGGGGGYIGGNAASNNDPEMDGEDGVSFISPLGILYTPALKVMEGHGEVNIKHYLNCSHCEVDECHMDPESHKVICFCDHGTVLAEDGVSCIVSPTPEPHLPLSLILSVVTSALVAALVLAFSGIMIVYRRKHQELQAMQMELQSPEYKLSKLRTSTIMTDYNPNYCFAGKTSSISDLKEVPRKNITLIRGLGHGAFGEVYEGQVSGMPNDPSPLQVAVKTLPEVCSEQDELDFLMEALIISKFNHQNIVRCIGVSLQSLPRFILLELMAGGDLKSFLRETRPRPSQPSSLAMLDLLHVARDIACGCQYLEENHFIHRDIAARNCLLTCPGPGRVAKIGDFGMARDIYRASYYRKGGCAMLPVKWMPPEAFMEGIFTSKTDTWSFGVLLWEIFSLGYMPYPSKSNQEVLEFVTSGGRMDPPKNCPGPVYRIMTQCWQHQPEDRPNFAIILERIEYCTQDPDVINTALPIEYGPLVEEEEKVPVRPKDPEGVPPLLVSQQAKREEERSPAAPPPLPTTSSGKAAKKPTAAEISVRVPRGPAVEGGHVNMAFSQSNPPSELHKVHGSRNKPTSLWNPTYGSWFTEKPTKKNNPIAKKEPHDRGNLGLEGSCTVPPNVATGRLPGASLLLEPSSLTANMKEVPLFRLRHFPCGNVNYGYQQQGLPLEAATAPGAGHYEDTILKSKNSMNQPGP
UniProt P10398: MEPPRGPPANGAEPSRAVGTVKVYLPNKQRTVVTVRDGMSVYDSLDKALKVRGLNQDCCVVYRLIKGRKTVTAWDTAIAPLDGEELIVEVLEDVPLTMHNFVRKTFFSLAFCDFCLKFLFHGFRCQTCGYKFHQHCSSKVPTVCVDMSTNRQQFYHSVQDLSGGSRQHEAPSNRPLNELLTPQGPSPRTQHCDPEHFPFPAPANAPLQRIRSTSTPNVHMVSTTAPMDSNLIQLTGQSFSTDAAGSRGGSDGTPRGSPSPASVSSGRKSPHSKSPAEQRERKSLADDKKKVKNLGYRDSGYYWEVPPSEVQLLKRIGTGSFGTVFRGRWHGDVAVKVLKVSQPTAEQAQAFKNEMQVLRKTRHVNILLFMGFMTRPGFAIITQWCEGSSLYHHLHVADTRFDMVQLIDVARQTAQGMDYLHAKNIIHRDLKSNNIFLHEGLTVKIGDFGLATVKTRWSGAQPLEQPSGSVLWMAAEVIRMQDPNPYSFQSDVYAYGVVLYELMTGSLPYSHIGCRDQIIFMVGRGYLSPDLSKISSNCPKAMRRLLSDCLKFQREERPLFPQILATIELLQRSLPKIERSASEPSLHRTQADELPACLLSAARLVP
UniProt O14965: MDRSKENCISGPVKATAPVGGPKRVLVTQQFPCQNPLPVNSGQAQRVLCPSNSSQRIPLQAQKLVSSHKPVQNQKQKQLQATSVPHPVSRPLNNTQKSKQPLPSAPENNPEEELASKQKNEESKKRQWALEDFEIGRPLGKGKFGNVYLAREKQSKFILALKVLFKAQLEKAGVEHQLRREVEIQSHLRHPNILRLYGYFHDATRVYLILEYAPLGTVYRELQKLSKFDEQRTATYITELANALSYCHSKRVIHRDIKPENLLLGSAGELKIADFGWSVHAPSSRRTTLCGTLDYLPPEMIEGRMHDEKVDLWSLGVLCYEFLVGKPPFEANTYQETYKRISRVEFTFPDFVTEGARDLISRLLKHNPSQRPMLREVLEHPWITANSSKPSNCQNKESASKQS
UniProt Q96GD4, whole entry: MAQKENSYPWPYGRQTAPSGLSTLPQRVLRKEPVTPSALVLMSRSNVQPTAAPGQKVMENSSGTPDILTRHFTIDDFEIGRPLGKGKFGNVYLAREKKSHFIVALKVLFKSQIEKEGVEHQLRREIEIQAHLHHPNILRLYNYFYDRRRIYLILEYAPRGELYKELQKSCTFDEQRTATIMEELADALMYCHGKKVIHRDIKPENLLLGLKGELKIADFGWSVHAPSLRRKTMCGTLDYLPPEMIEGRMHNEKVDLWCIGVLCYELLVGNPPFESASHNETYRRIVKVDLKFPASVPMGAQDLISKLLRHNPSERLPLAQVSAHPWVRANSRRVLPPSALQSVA
UniProt Q9UQB9: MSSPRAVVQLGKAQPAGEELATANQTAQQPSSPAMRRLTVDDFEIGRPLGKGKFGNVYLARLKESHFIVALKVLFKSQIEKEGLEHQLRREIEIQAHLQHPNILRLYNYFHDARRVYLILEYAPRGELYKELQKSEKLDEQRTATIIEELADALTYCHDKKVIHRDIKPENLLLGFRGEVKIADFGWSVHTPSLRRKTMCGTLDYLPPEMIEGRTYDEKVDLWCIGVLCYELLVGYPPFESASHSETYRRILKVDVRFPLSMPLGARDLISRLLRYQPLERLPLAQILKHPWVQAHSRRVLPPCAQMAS
UniProt P51451: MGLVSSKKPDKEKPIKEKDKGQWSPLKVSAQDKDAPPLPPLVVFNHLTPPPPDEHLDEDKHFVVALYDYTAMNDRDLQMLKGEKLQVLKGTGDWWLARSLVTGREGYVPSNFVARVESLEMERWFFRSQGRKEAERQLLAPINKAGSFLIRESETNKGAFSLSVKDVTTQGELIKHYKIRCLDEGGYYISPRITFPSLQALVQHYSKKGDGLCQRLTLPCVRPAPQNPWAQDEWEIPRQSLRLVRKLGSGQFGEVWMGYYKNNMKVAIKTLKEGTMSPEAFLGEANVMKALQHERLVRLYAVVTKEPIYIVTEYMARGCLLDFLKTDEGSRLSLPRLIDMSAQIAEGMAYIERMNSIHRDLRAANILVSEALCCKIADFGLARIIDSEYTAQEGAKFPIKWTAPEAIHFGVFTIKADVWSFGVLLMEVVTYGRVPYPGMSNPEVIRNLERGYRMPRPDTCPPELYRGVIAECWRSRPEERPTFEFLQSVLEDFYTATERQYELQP
UniProt P51813: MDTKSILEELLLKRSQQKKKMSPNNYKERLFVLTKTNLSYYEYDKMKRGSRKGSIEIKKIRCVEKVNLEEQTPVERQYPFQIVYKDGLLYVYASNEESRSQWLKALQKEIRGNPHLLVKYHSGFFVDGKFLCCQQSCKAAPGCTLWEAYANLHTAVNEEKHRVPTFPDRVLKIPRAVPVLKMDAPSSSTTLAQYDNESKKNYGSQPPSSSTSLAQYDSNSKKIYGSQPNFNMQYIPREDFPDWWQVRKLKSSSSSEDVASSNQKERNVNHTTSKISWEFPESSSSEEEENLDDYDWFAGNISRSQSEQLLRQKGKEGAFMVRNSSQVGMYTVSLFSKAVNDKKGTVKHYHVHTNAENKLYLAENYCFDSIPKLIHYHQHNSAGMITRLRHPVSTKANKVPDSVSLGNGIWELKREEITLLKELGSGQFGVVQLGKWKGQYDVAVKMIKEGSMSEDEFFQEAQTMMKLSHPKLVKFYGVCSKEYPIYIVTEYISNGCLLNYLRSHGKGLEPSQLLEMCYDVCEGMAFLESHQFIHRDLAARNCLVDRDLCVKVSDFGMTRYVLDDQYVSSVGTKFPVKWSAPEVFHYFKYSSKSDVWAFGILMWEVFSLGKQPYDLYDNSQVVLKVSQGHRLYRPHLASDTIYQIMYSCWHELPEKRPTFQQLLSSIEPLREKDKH
UniProt P15056, whole entry, looked up: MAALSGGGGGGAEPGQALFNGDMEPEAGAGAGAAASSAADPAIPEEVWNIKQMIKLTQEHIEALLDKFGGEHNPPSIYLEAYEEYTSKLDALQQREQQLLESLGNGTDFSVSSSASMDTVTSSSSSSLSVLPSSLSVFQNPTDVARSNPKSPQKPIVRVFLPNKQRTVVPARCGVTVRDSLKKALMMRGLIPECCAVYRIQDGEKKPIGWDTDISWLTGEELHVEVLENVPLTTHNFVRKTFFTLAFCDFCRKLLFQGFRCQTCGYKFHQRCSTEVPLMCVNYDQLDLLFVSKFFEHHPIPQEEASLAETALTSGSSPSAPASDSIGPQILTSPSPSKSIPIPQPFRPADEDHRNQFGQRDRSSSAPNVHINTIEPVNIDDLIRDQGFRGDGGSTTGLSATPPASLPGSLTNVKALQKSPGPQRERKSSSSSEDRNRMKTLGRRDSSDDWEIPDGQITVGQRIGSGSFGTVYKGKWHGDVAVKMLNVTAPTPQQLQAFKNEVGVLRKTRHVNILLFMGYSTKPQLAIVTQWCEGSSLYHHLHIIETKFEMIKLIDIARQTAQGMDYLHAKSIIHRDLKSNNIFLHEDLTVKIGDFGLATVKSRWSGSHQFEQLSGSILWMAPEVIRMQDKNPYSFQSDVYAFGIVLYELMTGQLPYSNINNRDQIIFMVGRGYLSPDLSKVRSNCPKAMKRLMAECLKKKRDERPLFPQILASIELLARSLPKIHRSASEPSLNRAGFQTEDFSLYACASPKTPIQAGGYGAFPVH
UniProt Q06187: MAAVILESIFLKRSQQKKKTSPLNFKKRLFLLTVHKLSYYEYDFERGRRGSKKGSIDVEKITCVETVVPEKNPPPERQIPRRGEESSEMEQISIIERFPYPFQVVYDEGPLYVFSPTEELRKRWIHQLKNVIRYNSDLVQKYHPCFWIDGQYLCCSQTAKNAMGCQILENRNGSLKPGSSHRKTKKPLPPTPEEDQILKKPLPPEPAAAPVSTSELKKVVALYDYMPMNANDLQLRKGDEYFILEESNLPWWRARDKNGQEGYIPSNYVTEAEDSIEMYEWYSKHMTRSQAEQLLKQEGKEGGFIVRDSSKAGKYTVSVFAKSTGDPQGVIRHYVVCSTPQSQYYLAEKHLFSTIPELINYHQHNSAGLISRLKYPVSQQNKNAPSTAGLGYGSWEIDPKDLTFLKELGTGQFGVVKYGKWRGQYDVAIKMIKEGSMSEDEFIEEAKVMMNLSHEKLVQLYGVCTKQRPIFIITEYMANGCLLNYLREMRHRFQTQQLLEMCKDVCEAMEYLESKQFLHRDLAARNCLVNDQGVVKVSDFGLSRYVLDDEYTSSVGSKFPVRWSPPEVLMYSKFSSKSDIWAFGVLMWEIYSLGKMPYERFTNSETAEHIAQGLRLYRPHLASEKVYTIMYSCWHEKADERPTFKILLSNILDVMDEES

Legend:
Test in all cases: number of time points (of 5) at which kinase-Nluc abundance scored as decreased, DMSO-normalised (count); higher = more persistent destabilization
Conditions in all cases: K562; 2-18 h
ALK = ALK (UniProt Q9UM73)
ARAF = ARAF (UniProt P10398)
AURKA = AURKA (UniProt O14965)
AURKB = AURKB (UniProt Q96GD4)
AURKC = AURKC (UniProt Q9UQB9)
BLK = BLK (UniProt P51451)
BMX = BMX (UniProt P51813)
BRAF = BRAF (UniProt P15056)
BRAF_V600E = system: BRAF_V600E
BTK = BTK (UniProt Q06187)

Measured: number of time points

O=c1sn(-c2cccc3ccccc23)c(=O)n1Cc1ccccc1 [Tideglusib] (10 µM)
0: all assays above

Cc1nc(NC(=O)N2CCC[C@H]2C(N)=O)sc1-c1csc(C(C)(C)C)n1 (10 µM)
0: all assays above

O=S(=O)(c1cccc2c(Cl)cccc12)N1CCCNCC1 (10 µM)
0: all assays above

CCc1nc(C(N)=O)c(Nc2ccc(N3CCC(N4CCN(C)CC4)CC3)c(OC)c2)nc1NC1CCC(OC)CC1 (stereo not given) [EML4-ALK kinase inhibitor 1] (2.5 µM)
0: all assays above

O=c1cc(N2CCOCC2)oc2c1ccc1ccccc12 (2 µM)
0: all assays above

CC1=C(C(=O)Nc2ccc3[nH]ncc3c2)C(c2ccc(F)c(C(=O)NCc3ccccn3)c2)NC(=O)N1 (stereo not given) (10 µM)
0: all assays above

C=C[C@H]1[C@H](O[C@@H]2O[C@H](CO)[C@@H](O)[C@H](O)[C@H]2O)OC=C(C(=O)OC)[C@H]1CCOC(=O)c1cc(O)c(O)c(O)c1 [Cornuside] (10 µM)
0: all assays above

Cc1ncc(F)c(Nc2n[nH]c3c2CN(C(=O)N2C[C@@H](C)N(CC4CCOCC4)C[C@@H]2C)C3(C)C)n1 (10 µM)
0: all assays above

N#Cc1c[nH]c2ccc(-c3ccc(-c4c(O)cccc4O)cc3)cc12 (10 µM)
0: all assays above

O=C(O)[C@]1(Cc2cccc(Nc3nccs3)n2)CC[C@@H](Oc2cccc(Cl)c2F)CC1 (2.5 µM)
2: BMX | BRAF_V600E
1: ALK
0: all other assays above

CCc1ccc(NC(=O)Nc2ccccc2)cc1 (10 µM)
0: all assays above

CN(c1ccc(C(F)(F)F)cc1)S(=O)(=O)c1ccc(C(=O)Nc2nc(-c3ccccn3)cs2)cc1 (2.5 µM)
1: BMX
0: all other assays above

O=c1cc(-c2ccc(O)cc2)oc2cc(O)c([C@@H]3O[C@H](CO)[C@@H](O)[C@H](O)[C@H]3O)c(O)c12 [Isovitexin] (10 µM)
0: all assays above

O=C1c2cccc(O)c2C(=O)c2c(O)cccc21 [Danthron] (10 µM)
0: all assays above

CCn1c(-c2nonc2N)nc2c(C#CCO)ncc(OCCCN)c21 [AKT Kinase Inhibitor] (10 µM)
2: BMX
0: all other assays above

COc1cc(OC)c(/C=C/S(=O)(=O)Cc2ccc(OC)c(NCC(=O)O)c2)c(OC)c1 [Rigosertib (sodium)] (10 µM)
1: ALK | BLK | BMX | BRAF_V600E
0: all other assays above

COc1cc(Nc2nc3ccccc3nc2NS(=O)(=O)c2ccc(NC(=O)c3ccc(C)c(OC)c3)cc2)cc(OC)c1 (10 µM)
0: all assays above

CNCCOc1ccccc1C(C)(C)Nc1nccn(-c2cc(C(=O)NC3CC3)ccc2C)c1=O [p38α inhibitor 2] (10 µM)
0: all assays above

CNC(=O)c1nnc(NC(=O)C2CC2)cc1Nc1cccc(-c2ncn(C)n2)c1OC [Deucravacitinib] (10 µM)
0: all assays above

CCOc1cc(C(=O)N2CCC(N3CCN(C)CC3)CC2)ccc1Nc1ncc2c(n1)N(S(C)(=O)=O)c1ccccc1C(=O)N2C (10 µM)
0: all assays above

C[C@@H]1CN(CC(=O)Nc2ccc3c(c2)Cc2cccc(-c4cc(=O)cc(N5CCOCC5)o4)c2S3)C[C@H](C)O1 (2.5 µM)
0: all assays above

NC(=O)c1ccc2nc(-c3ccc(C4(N)CCC4)cc3)c(-c3ccccc3)n2n1 (10 µM)
0: all assays above

CCOC(=O)C1=C[C@]2(CC)CCCN3CCc4c(n1c1ccccc41)[C@@H]32 [Vinpocetine] (10 µM)
0: all assays above

As a short view, 2 of the compounds above.
CCOc1cc(C(=O)N2CCC(N3CCN(C)CC3)CC2)ccc1Nc1ncc2c(n1)N(S(C)(=O)=O)c1ccccc1C(=O)N2C (10 µM)
0: all assays above

C[C@@H]1CN(CC(=O)Nc2ccc3c(c2)Cc2cccc(-c4cc(=O)cc(N5CCOCC5)o4)c2S3)C[C@H](C)O1 (2.5 µM)
0: all assays above

(list continues)

Cn1cc(C2=C(c3c4n(c5ccccc35)CCC(CN)C4)C(=O)NC2=O)c2ccccc21 (stereo not given) [Bisindolylmaleimide X (hydrochloride)] (2.5 µM)
0: all assays above
